One substance from US20220184184A1 (Novo Nordisk A/S, priority 2019, published 2022) can be followed below.

The nature of this series: general procedure: Fmoc solid-phase peptide synthesis; 2-Chlorotrityl resin 100-200 mesh […] (also […]); TCTU / N,N-diisopropylethylamine. The settings on record: late stage modification step, TFA salt.

Turning to Boc-Lys(Boc)-OEG3-benzaldehyde, the step yield is recorded as 99%.
